Measured data: PubChem BioAssay AID1224830 (NIAID, 2016)
The whole screen tested about 18,000 reagents; this is an unselected part. Of all reagents, about 2,900 (16%) got an active call. 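Calls are made per well; low scores hint the gene aids the LPS response, high scores that it dampens it.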 Repeated entries: four replicate wells of each siRNA pool.

- Assay: 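Regulators of TLR4 signalling towards TNF-alpha in macrophage-like cells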 (primary screen)
- System: human THP-1 monocytic leukaemia cells, TNF dual-luciferase reporter clone, PMA-differentiated to macrophage-like cells
- Knock-down reagent: siRNA pool against human genes, 50 nM
- Timing: LPS for 4 h, given about 3 days after siRNA transfection
- Challenge: bacterial LPS (TLR4 ligand), 10 ng/ml
- Measured: 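TNF firefly reporter luminescence divided by renilla, normalised to the plate median, then turned into a robust z-score for each replicate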
- Scale: TNF reporter robust z-score: higher = stronger TNF reporter response to LPS
- Hit rule: 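a well is active when its z-score exceeds 2.8 or falls below -1.5; control wells carry no call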

| target | TNF reporter robust z-score | Call |
| --- | --- | --- |
| PMVK (phosphomevalonate kinase) | -1.08 | inactive |
| PMVK (phosphomevalonate kinase) | 0.05 | inactive |
| PMVK (phosphomevalonate kinase) | -0.4 | inactive |
| PMVK (phosphomevalonate kinase) | 0.79 | inactive |
| KIFAP3 (kinesin associated protein 3) | -1.68 | active |
| KIFAP3 (kinesin associated protein 3) | 0.15 | inactive |
| KIFAP3 (kinesin associated protein 3) | -0.3 | inactive |
| KIFAP3 (kinesin associated protein 3) | -0.33 | inactive |
| YIF1A | -1.21 | inactive |
| YIF1A | -0.81 | inactive |
| YIF1A | -0.6 | inactive |
| YIF1A | -0.36 | inactive |
| EYA2 (EYA transcriptional coactivator and phosphatase 2) | 0.84 | inactive |
| EYA2 (EYA transcriptional coactivator and phosphatase 2) | 2.62 | inactive |
| EYA2 (EYA transcriptional coactivator and phosphatase 2) | 2.07 | inactive |
| EYA2 (EYA transcriptional coactivator and phosphatase 2) | -0.34 | inactive |
| FABP3 (fatty acid binding protein 3) | -0.83 | inactive |
| FABP3 (fatty acid binding protein 3) | -0.58 | inactive |
| FABP3 (fatty acid binding protein 3) | -0.22 | inactive |
| FABP3 (fatty acid binding protein 3) | -0.28 | inactive |
| GSDMA (gasdermin A) | -0.47 | inactive |
| GSDMA (gasdermin A) | 0.14 | inactive |
| GSDMA (gasdermin A) | 0.32 | inactive |
| GSDMA (gasdermin A) | 0.2 | inactive |
| CDK5RAP1 (CDK5RAP1 mitochondrial tRNA methylthiotransferase) | 0.38 | inactive |
| CDK5RAP1 (CDK5RAP1 mitochondrial tRNA methylthiotransferase) | 0.93 | inactive |
| CDK5RAP1 (CDK5RAP1 mitochondrial tRNA methylthiotransferase) | -0.76 | inactive |
| CDK5RAP1 (CDK5RAP1 mitochondrial tRNA methylthiotransferase) | -0.36 | inactive |
| KIAA1143 | -0.11 | inactive |
| KIAA1143 | 0.11 | inactive |
| KIAA1143 | 2.02 | inactive |
| KIAA1143 | -0.53 | inactive |
| LIF (LIF interleukin 6 family cytokine) | -0.27 | inactive |
| LIF (LIF interleukin 6 family cytokine) | -0.12 | inactive |
| LIF (LIF interleukin 6 family cytokine) | -0.68 | inactive |
| LIF (LIF interleukin 6 family cytokine) | -0.17 | inactive |
| NHEJ1 (non-homologous end joining factor 1) | 1.29 | inactive |
| NHEJ1 (non-homologous end joining factor 1) | 0.54 | inactive |
| NHEJ1 (non-homologous end joining factor 1) | 1.35 | inactive |
| NHEJ1 (non-homologous end joining factor 1) | 1.79 | inactive |
| NMT1 (N-myristoyltransferase 1) | -0.18 | inactive |
| NMT1 (N-myristoyltransferase 1) | 1.73 | inactive |
| NMT1 (N-myristoyltransferase 1) | 0.5 | inactive |
| NMT1 (N-myristoyltransferase 1) | 2 | inactive |
| CNP (2',3'-cyclic nucleotide 3' phosphodiesterase) | -0.95 | inactive |
| CNP (2',3'-cyclic nucleotide 3' phosphodiesterase) | 0.13 | inactive |
| CNP (2',3'-cyclic nucleotide 3' phosphodiesterase) | -0.48 | inactive |
| CNP (2',3'-cyclic nucleotide 3' phosphodiesterase) | -0.82 | inactive |

Records listed above with an active call, once more:
| target | TNF reporter robust z-score | Call |
| --- | --- | --- |
| KIFAP3 (kinesin associated protein 3) | -1.68 | active |
